Results are given in words; binding and its absence hold for the method and conditions named. Binding seen in cells or lysates may run through a third protein. For part of these data: A result given as binding can be weak or reduced; the word gives no strength. Tags and fused reporters may be left off the sequences shown.

Test in all cases: split reporter; split-luciferase complementation; nLUC and cLUC fusions co-expressed in N. benthamiana leaves by agroinfiltration (1:1); LUC image taken with a CCD after adding luciferin
In experiment [1] the target is T1, Cluc-AtCRN (Arabidopsis thaliana) (UniProt Q9LYU7).
T1 sequence: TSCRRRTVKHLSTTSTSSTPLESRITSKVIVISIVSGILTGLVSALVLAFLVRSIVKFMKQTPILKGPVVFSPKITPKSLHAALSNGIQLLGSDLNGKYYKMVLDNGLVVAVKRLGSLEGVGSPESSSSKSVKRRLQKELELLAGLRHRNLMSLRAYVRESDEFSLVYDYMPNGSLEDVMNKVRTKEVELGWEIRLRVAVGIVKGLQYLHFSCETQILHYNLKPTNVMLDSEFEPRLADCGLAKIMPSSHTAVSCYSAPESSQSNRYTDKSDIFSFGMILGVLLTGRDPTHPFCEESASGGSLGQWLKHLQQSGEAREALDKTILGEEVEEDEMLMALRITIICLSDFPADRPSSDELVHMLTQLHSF

The target of experiment [2] is T2, Cluc-AtCLV2 (Arabidopsis thaliana) (UniProt O80809).
T2 sequence: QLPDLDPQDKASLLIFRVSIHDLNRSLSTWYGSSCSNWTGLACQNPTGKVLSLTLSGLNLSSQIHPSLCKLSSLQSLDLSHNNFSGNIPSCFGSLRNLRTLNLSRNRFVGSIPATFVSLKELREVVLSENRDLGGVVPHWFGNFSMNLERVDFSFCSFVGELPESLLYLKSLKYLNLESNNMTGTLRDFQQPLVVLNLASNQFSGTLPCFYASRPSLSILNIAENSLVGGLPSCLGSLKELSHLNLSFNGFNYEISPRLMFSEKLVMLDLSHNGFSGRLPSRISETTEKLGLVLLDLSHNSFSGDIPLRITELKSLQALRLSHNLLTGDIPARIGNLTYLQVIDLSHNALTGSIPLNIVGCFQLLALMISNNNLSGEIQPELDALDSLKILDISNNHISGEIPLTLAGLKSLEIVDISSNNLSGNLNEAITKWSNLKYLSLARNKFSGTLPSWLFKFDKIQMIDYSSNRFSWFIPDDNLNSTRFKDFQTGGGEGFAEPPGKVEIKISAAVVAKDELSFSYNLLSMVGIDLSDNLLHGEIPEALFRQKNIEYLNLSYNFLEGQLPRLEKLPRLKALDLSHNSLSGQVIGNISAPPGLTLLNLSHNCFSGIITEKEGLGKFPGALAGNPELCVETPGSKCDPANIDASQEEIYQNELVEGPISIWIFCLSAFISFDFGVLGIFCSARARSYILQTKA

The target of experiment [3] is T3, Cluc-AtCLV1 (Arabidopsis thaliana) (UniProt Q9SYQ8).
T3 sequence: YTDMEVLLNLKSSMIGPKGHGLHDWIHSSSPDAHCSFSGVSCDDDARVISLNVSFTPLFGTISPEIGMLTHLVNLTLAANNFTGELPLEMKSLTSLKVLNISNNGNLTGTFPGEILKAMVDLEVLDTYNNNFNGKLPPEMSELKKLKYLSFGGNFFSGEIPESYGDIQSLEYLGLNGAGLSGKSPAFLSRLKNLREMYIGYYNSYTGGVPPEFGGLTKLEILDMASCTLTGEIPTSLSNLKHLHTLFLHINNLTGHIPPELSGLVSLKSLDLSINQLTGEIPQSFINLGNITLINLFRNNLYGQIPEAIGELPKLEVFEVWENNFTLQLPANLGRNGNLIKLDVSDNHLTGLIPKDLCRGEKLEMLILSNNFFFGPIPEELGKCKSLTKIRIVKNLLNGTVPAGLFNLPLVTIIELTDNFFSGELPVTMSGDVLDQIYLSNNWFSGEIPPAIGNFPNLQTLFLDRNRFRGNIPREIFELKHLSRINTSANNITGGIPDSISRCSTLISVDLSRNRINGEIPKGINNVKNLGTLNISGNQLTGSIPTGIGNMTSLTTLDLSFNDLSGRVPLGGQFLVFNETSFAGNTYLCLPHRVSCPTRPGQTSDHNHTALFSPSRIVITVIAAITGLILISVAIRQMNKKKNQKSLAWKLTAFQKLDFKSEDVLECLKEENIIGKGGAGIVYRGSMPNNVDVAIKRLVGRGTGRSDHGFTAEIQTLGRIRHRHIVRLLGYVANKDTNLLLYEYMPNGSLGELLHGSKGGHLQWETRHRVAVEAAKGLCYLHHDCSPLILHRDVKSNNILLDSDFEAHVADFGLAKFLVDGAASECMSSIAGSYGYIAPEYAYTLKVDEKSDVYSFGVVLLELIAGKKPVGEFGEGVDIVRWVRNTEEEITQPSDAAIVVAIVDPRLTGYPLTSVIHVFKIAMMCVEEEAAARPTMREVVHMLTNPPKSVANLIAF

“GhCLE5-Nluc (Gossypium hirsutum (upland cotton))”: the binding result in experiment [1] is recorded as “no binding”; in experiment [2] it was “no binding”; in experiment [3], “binds”.
